Values from PubChem BioAssay AID652272 (Drosophila RNAi Screening Center, 2013).
The screen tested about 21,000 reagents; this is an unselected part of those with a known target gene and a result. Of all reagents, 503 (2.4%) got an active call. 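Raw plate light values, not normalised; calls rest on replicate z-scores that were not deposited; hits include reporter decreases as well as increases.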 A number with no mark means an inactive call. Names joined by + are all predicted targets of the reagent. The record does not give: the amount of reagent, the time to read-out.

Aim: 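Finding fly genes that regulate Hedgehog signal transduction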 (primary screen)
Cells: Drosophila clone 8 (Cl8) cells
Reagent: long dsRNA against Drosophila genes
Detection: 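Firefly light from a Hedgehog-responsive ptc promoter reporter and Renilla reference light, both read on a plate reader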
Scale: firefly Hh reporter signal: higher = more ptc reporter light; Renilla reference signal: higher = more Renilla control light
Rule for the call: 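Hit when the z-score averaged over two replicates is under -2 or over +3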
Calls: active = hit: reporter lowered or raised; inactive = not a hit

For Rab10, what was measured?
firefly Hh reporter signal, replicate 1: 67959; firefly Hh reporter signal, replicate 2: 1.83e5; Renilla reference signal, replicate 1: 1498; Renilla reference signal, replicate 2: 8720

For hpRNA:CR18854 + IP3K1, what was measured?
firefly Hh reporter signal, replicate 1: 1.14e5; firefly Hh reporter signal, replicate 2: 53248; Renilla reference signal, replicate 1: 4466; Renilla reference signal, replicate 2: 2461

With CG13314, how do the results read?
firefly Hh reporter signal, replicate 1: 43241; firefly Hh reporter signal, replicate 2: 58171; Renilla reference signal, replicate 1: 4602; Renilla reference signal, replicate 2: 3414

With CG8960, what was measured?
firefly Hh reporter signal, replicate 1: 1.06e5; firefly Hh reporter signal, replicate 2: 91184; Renilla reference signal, replicate 1: 4707; Renilla reference signal, replicate 2: 4181

With t-Grip128 (testis-specific gamma-tubulin ring protein 128), how do the results read?
firefly Hh reporter signal, replicate 1: 1.33e5; firefly Hh reporter signal, replicate 2: 3.13e5; Renilla reference signal, replicate 1: 4493; Renilla reference signal, replicate 2: 12400

With CG10041, what does the deposit list?
firefly Hh reporter signal, replicate 1: 82899; firefly Hh reporter signal, replicate 2: 82616; Renilla reference signal, replicate 1: 2629; Renilla reference signal, replicate 2: 2176

What did the screen give for RpL13 (Ribosomal protein L13)?
firefly Hh reporter signal, replicate 1: 2.33e5 (active); firefly Hh reporter signal, replicate 2: 28011; Renilla reference signal, replicate 1: 2544; Renilla reference signal, replicate 2: 2544

As entered above:
For “Renilla reference signal, replicate 1”, t-Grip128 (testis-specific gamma-tubulin ring protein 128) has 4493
Under “firefly Hh reporter signal, replicate 2”, CG8960 reads 91184

Further records follow:
For Rap1 (Rap1 GTPase), what does the deposit list?
firefly Hh reporter signal, replicate 1: 1.06e5; firefly Hh reporter signal, replicate 2: 53042; Renilla reference signal, replicate 1: 5181; Renilla reference signal, replicate 2: 2802

With Prp40 (pre-mRNA processing factor 40), what was measured?
firefly Hh reporter signal, replicate 1: 60887; firefly Hh reporter signal, replicate 2: 54666; Renilla reference signal, replicate 1: 3194; Renilla reference signal, replicate 2: 3171

What did the screen give for CG15286?
firefly Hh reporter signal, replicate 1: 1.59e5; firefly Hh reporter signal, replicate 2: 39867; Renilla reference signal, replicate 1: 4024; Renilla reference signal, replicate 2: 4349

What did the screen give for Dic1?
firefly Hh reporter signal, replicate 1: 1.39e5; firefly Hh reporter signal, replicate 2: 63261; Renilla reference signal, replicate 1: 5635; Renilla reference signal, replicate 2: 1610

What did the screen give for Gr63a (Gustatory receptor 63a)?
firefly Hh reporter signal, replicate 1: 59049; firefly Hh reporter signal, replicate 2: 51802; Renilla reference signal, replicate 1: 1971; Renilla reference signal, replicate 2: 3670
